The assay deals with T1, BASP1 that contains a C-terminal HA tag (UniProt P80723).
T1 sequence: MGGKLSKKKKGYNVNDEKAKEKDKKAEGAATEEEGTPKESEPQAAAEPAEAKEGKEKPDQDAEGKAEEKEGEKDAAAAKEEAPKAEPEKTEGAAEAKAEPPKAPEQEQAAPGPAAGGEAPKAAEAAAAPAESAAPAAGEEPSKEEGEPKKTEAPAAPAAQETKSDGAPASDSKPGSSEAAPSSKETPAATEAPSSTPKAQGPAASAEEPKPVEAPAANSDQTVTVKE
Briefly: co-IP; anti-HA immunoprecipitation from nuclear extracts of V-K562 and B-K562 cells; immunoblotting for the identified factors.

Sequences of proteins named here, by UniProt entry; tags and fusion partners are left off. A change or cut given only in a name is not applied to a line headed by its entry.
UniProt P06396: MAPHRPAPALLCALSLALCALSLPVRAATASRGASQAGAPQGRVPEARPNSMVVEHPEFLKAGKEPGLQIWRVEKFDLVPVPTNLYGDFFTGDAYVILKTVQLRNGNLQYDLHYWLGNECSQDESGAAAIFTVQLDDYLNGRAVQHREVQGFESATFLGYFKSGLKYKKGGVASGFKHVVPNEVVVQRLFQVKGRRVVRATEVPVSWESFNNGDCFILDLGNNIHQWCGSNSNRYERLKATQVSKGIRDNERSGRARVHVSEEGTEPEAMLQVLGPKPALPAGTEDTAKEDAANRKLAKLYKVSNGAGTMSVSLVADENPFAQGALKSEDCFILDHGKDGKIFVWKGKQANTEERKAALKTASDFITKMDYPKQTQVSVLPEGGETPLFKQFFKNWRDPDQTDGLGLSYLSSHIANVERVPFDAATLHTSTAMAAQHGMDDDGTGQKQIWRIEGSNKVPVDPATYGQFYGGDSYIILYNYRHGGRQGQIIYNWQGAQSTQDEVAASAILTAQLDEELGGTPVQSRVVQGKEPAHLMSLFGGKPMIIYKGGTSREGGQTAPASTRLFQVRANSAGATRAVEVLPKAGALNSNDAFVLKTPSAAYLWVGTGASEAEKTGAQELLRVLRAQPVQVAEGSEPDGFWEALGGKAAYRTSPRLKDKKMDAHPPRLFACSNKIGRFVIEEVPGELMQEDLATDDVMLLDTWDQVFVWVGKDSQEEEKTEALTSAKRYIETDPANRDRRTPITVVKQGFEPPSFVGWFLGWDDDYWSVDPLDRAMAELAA

From article PMC5520704 come the findings set out here.

These are yes or no findings as the source states them, for the method shown. Binding seen in cells or lysates may run through a third protein. Binding can be weak; no strength is given. Sequences can lack the tags named with a protein.

With gelsolin (from UniProt P06396), the binding entry is “binds”.
